For this series, the system named is aCcr1 (Saccharolobus islandicus REY15A). Briefly: EMSA. The following applies: 0, 0.5 and 1 uM aCcr1, 2 nM probe (legend, Methods say 10 nM), 5 mM Mg2+; 50 mM Tris-HCl pH 7.4, 5 mM MgCl2, 20 mM NaCl, 50 ug/mL BSA, 1 mM DTT, 5% glycerol, 37 C 30 min; native PAGE (12% in Methods, 10% in legend), 0.5x TBE; recombinant protein; label: 5'-FAM on strand 1. (In general: In EMSA bound probe runs differently from free probe, usually more slowly.)

Data on one sequence can be found in paper PMC12796447, “Cran1, member of a new class of OLD family ATPases, functions in cell cycle progression in an archaeon” (EMBO Reports, 2025).

Construct, isoform or probe ends are uncertain for at least one entry.

As to “AGATAATACTCCGTTTTTTCTCTAACAATAGATTAACGTTAAAGAAGCCTGCTAACGATTATATTTTATTCTGCTAAGTATTACCGTAGAGTGATCTGTA (double strand) [Pcran1 (cran1 promoter, 100 nt)]”, the binding result is on record as “binds”.
